Results taken from PMC9438157.
These are yes or no findings as the source states them, for the method shown. In cells and extracts the contact can be indirect. Some entries that bind do so weakly or less than the wild type. For some of these results: Tags and fused reporters may be left off the sequences shown. Blank lines part the entries; values can stand above or below the binder they belong to.

Key:
flag-tagged SMG5 = target: T1, flag-tagged SMG5 (UniProt Q9UPR3); experiment: co-IP; 293 T cells transfected with myc-tagged PP2A and flag-tagged SMG5, treated with or without nonbiotinylated DDIT4-AS1 RNA (doses); IP with anti-Flag antibodies, Western blot
T1 sequence: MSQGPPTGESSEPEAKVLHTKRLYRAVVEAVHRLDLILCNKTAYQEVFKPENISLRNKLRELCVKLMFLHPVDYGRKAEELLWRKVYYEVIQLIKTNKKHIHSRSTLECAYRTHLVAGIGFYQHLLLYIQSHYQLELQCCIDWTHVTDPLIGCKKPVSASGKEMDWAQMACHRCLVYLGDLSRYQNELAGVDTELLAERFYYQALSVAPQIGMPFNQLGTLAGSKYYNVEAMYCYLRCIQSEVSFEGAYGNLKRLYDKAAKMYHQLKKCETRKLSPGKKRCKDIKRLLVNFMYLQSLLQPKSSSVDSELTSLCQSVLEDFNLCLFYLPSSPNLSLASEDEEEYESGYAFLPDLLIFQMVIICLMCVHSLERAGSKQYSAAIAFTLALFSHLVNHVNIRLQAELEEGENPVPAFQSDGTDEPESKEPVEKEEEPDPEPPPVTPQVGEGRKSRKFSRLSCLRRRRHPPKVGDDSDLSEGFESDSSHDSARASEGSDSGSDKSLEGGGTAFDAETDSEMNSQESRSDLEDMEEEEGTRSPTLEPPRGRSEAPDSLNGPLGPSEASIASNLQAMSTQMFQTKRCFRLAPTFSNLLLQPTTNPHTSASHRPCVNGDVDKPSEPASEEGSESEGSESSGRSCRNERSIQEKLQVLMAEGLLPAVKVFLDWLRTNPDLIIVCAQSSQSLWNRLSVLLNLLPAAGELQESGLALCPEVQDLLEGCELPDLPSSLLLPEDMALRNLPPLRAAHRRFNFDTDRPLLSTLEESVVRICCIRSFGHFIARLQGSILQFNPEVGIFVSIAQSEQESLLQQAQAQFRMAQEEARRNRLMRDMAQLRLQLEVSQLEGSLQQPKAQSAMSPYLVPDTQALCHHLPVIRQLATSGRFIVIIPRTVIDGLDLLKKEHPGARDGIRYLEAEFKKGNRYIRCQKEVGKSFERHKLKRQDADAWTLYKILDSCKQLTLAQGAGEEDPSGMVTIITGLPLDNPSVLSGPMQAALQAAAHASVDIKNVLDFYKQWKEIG

[1] = target: T2, SMG5 (human (endogenous in BxPC-3 and SW1990)) (UniProt Q9UPR3); experiment: co-IP; endogenous proteins; lysates of BxPC-3 cells (with or without DDIT4-AS1 siRNA) and SW1990 cells (with or without DDIT4-AS1 overexpression plasmid); IP with anti-SMG5 antibodies, Protein A/G Dynabeads, Western blot; lysis buffer 25 mM Tris-HCl pH 7.4, 150 mM NaCl, 1% NP-40, 1 mM EDTA, 5% glycerol
T2 sequence: T1 sequence

binding (flag-tagged SMG5): binds
binding [1]: binds
B1: UPF1 (protein, UniProt Q92900-2 1-1118)
chain: MSVEAYGPSSQTLTFLDTEEAELLGADTQGSEFEFTDFTLPSQTQTPPGGPGGPGGGGAGGPGGAGAGAAAGQLDAQVGPEGILQNGAVDDSVAKTSQLLAELNFEEDEEDTYYTKDLPIHACSYCGIHDPACVVYCNTSKKWFCNGRGNTSGSHIVNHLVRAKCKEVTLHKDGPLGETVLECYNCGCRNVFLLGFIPAKADSVVVLLCRQPCASQSSLKDINWDSSQWQPLIQDRCFLSWLVKIPSEQEQLRARQITAQQINKLEELWKENPSATLEDLEKPGVDEEPQHVLLRYEDAYQYQNIFGPLVKLEADYDKKLKESQTQDNITVRWDLGLNKKRIAYFTLPKTDSDMRLMQGDEICLRYKGDLAPLWKGIGHVIKVPDNYGDEIAIELRSSVGAPVEVTHNFQVDFVWKSTSFDRMQSALKTFAVDETSVSGYIYHKLLGHEVEDVIIKCQLPKRFTAQGLPDLNHSQVYAVKTVLQRPLSLIQGPPGTGKTVTSATIVYHLARQGNGPVLVCAPSNIAVDQLTEKIHQTGLKVVRLCAKSREAIDSPVSFLALHNQIRNMDSMPELQKLQQLKDETGELSSADEKRYRALKRTAERELLMNADVICCTCVGAGDPRLAKMQFRSILIDESTQATEPECMVPVVLGAKQLILVGDHCQLGPVVMCKKAAKAGLSQSLFERLVVLGIRPIRLQVQYRMHPALSAFPSNIFYEGSLQNGVTAADRVKKGFDFQWPQPDKPMFFYVTQGQEEIASSGTSYLNRTEAANVEKITTKLLKAGAKPDQIGIITPYEGQRSYLVQYMQFSGSLHTKLYQEVEIASVDAFQGREKDFIILSCVRANEHQGIGFLNDPRRLNVALTRARYGVIIVGNPKALSKQPLWNHLLNYYKEQKVLVEGPLNNLRESLMQFSKPRKLVNTINPGARFMTTAMYDAREAIIPGSVYDRSSQGRPSSMYFQTHDQIGMISAGPSHVAAMNIPIPFNLVMPPMPPPGYFGQANGPAAGRGTPKGKTGRGGRQKNRFGLPGPSQTNLPNSQASQDVASQPFSQGALTQGYISMSQPSQMSQPGLSQPELSQDSYLGDEFKSQIDVALSQDSTYQGERAYQHGGVTGLSQY

binding (flag-tagged SMG5): binds
binding [1]: binds
B2: phospho-UPF1 (protein, UniProt Q92900-2 1-1118)
chain: B1 chain
modifications: phosphorylated (residues not stated)
